Data: PubChem BioAssay AID540276 (National Center for Advancing Translational Sciences (NCATS), 2011)
Hit rate of the full screen: of about 300,000 compounds, about 5,400 (1.8%) were called active. This list was built around the results that the source calls inconclusive (neither active nor inactive); the mix of calls is not that of the screen. Calls follow the shape of the full dose curve; tested in HEK293 cells. Where the call is inconclusive, the potency comes from a doubtful curve fit.

Assay: qHTS for inhibitors of binding or entry into cells for Marburg Virus
Conditions: Marburg virus pseudotyped entry inhibition, cell reporter; activity change, negative = inhibition: at 37.8 µM (top of the series) unless noted
% is scaled to controls: 0 for no effect and ±100 for the full control effect; potency is read from the fitted curve at half-maximal effect.

Compound | Potency | activity change, negative = inhibition
O=C(Nc1ccc(N2CCOCC2)nc1)c1c(F)cccc1F | inconclusive: 35.5 µM [activator, partial curve, poor fit] | –
CCCCCCCCCCCCCCCCCCNC(=O)OC[C@@H](COP(=O)([O-])OCC[n+]1ccsc1)OC | – | inactive: -25.9%
COc1ccc(NC(=O)c2ccc(NC3CC(=O)N(c4ccc(C)cc4C)C3=O)cc2)cc1 (stereo not drawn) | inconclusive: 11.2 µM [inhibitor, partial curve] | –
COc1ccc(C(=O)C2CCCN(C(=O)c3noc4c3CCCC4)C2)cc1F (stereo not drawn) | inconclusive: 10 µM [inhibitor, partial curve] | –
CC(=O)Nc1ccc2c(c1)nc1n2CCN(C(C)c2ccccc2)C1 (stereo not drawn) | inconclusive: 3.55 µM [activator, single point] | –
O=C(COC(=O)C1CCN(/C=C/C(=O)C(F)(F)F)CC1)Nc1cccc(F)c1 | inconclusive: 0.562 µM [inhibitor, partial curve, poor fit] | –
O=C(Cn1nc(-c2ccccc2)c2ccccc2c1=O)NN1CCOCC1 | inconclusive: 0.891 µM [inhibitor, single point] | –
COc1cc(OC)c(CN2CCN(c3ccc(F)cc3)CC2)cc1Br | inconclusive: 29.1 µM [inhibitor, single point] | –
CCOC(=O)c1c(C)[nH]c(C)c1C(=O)CSc1nncs1 | inconclusive: 6.31 µM [activator, single point] | –
CCN(CC)CCCNC(=S)N(Cc1cccnc1)Cc1cc2cc(C)cc(C)c2[nH]c1=O | inconclusive: 25.1 µM [inhibitor, partial curve, poor fit] | –
O=c1[nH]c(/C=C/c2cccc3ccccc23)nc2ccccc12 | inconclusive: 10 µM [inhibitor, partial curve, poor fit] | –
O=[N+]([O-])c1cccc(COc2cccc(CO)c2)c1 | inconclusive: 0.705 µM [activator, partial curve, poor fit] | –
COc1ccc2c(C)cc(SCC(=O)Nc3cc(C(N)=O)cc(C(N)=O)c3)nc2c1 | inconclusive: 35.5 µM [inhibitor, single point] | –
C=CCN1C(=O)/C(=C2/Sc3ccc(OC)cc3N2C)SC1=Nc1ccccc1 | inconclusive: 1.64 µM [inhibitor, partial curve, poor fit] | –
Cc1ccc(C)c(CN2CCN(c3ncccn3)CC2)c1 | – | inactive: -26.7% [at 46.1 µM]
COc1ccc(CCNCc2ccc(F)cc2)cc1OC | inconclusive: 3.55 µM [inhibitor, single point] | –
FC(F)(F)c1nnc2c(Sc3ccccc3)nc3ccc(Cl)cc3n12 | inconclusive: 18.3 µM [inhibitor, single point] | –
NC(=O)c1cc(Br)cc2c3c([nH]c12)CCCC3 | inconclusive: 7.08 µM [inhibitor, partial curve, poor fit] | –
Oc1cccc2ccc[n+](CC(O)Cn3c4ccccc4c4ccccc43)c12 (stereo not drawn) | inconclusive: 7.08 µM [inhibitor, partial curve, poor fit] | –
COc1ccc(-c2[nH]c(-c3ccc4c(c3)OCO4)nc2-c2ccccc2)cc1 | – | inactive: -86.8%
CC12CN3CCN(CC(C3)/C1=N\NC(=O)Nc1cccc(Cl)c1)C2 | inconclusive: 17.8 µM [activator, single point] | –
COc1ccc(NC(=O)c2cc3c(=O)n(C)c4ccccc4c3s2)cc1OC | inconclusive: 0.631 µM [activator, full curve, poor fit] | –

At a glance, two of the compounds above:
Compound | Potency | activity change, negative = inhibition
CCN(CC)CCCNC(=S)N(Cc1cccnc1)Cc1cc2cc(C)cc(C)c2[nH]c1=O | inconclusive: 25.1 µM [inhibitor, partial curve, poor fit] | –
O=c1[nH]c(/C=C/c2cccc3ccccc23)nc2ccccc12 | inconclusive: 10 µM [inhibitor, partial curve, poor fit] | –

(list continues)

Compound | Potency | activity change, negative = inhibition
COc1ccc(CN2CCN(C(=O)c3ccc(S(=O)(=O)NCc4ccco4)cc3)CC2)cc1F | inconclusive: 14.1 µM [inhibitor, single point] | –
O=C1c2ccccc2C(=O)N1c1ccccc1S(=O)C(F)(F)F (stereo not drawn) | inconclusive: 7.08 µM [activator, partial curve] | –
N#C/C(=C\c1ccccc1)C(=O)NCc1ccc(F)cc1 | inconclusive: 11.2 µM [inhibitor, partial curve, poor fit] | –
COC(=O)c1ccc(C)c(NC(=O)CSc2sc3c(O)cc(=O)[nH]c3c2C#N)c1 | – | inactive: 8.24% [at 46.1 µM]
COc1ccc(CCNC(=O)c2noc(C)c2[N+](=O)[O-])cc1OC | – | inactive: 23.6%
Cc1nc(SCC(=O)N2CCCCCC2)[nH]c(=O)c1C | – | inactive: -13%
COc1ccc(OC)c(Nc2c3c(nc4ccccc24)CCC3)c1 | active: 2.82 µM | –
C=CCC(C=C)S(=O)(=O)c1ccc(C)cc1 (stereo not drawn) | inconclusive: 0.0058 µM [inhibitor, full curve, poor fit] | –
CCCN(Cc1cccs1)C(=O)Nc1ccc(F)c(Cl)c1 | – | inactive: -17.2% [at 46.1 µM]
O=C(N/N=C1\CC2CC=CC12)c1ccc(Br)cc1 (stereo not drawn) | – | inactive: 9.18%
O=C(CN1CCN(S(=O)(=O)c2ccc(F)cc2)CC1)Nc1ccc(Cl)c(C(F)(F)F)c1 | inconclusive: 35.5 µM [inhibitor, single point] | –
COC(=O)c1cn(C(=O)c2ccc(OC)cc2)c2ccccc12 | inconclusive: 2.82 µM [inhibitor, partial curve, poor fit] | –
Cc1ccc(-n2ncc3c(=O)n(Cc4ccccc4C)cnc32)cc1C | – | inactive: 16.5% [at 46.1 µM]
COc1ccc(-c2cn[nH]c2N)cc1OC | inconclusive: 3.55 µM [inhibitor, full curve] | –
CCCN(CC(=O)Nc1ccccc1C)C(=O)c1sc2ccccc2c1Cl | inconclusive: 8.91 µM [inhibitor, partial curve, poor fit] | –
CCS(=O)(=O)c1ncc(Cl)c(C(=O)N(Cc2ccccc2)c2ccc(OC)cc2)n1 | inconclusive: 35.5 µM [inhibitor, single point] | –
Cc1cccc(NC(=S)Nc2c(C)n(C)n(-c3ccccc3)c2=O)c1C | inconclusive: 35.5 µM [activator, single point] | –
Cn1c(NC(=O)/C=C/c2ccco2)cc(=O)n(C)c1=O | inconclusive: 0.631 µM [activator, single point] | –
CNc1nnc(SCC(=O)c2c(N)n(C3CC3)c(=O)[nH]c2=O)s1 | – | inactive: 1.32% [at 46.1 µM]
CO[C@@]1(NC(=O)Cc2cccs2)C(=O)N2C(C(=O)O)=C(COC(N)=O)CS[C@@H]21 | – | inactive: -7.49%
Cc1ccc2c(C)c3ccc4ccccc4c3c[n+]2c1 | inconclusive: 35.5 µM [inhibitor, single point] | –
CCOC(=O)/C(C#N)=C1\C(=O)N(Cc2ccccc2)c2ccccc21 | inconclusive: 10 µM [inhibitor, partial curve, poor fit] | –
CCOc1ccc2c(c1)c(=O)c(C(=O)c1ccc(C)cc1)cn2Cc1ccccc1OC | inconclusive: 3.16 µM [inhibitor, partial curve, poor fit] | –

Compound | Potency | activity change, negative = inhibition
COc1ccc(C(c2c(C)[nH]n(C(N)=S)c2=O)C(C#N)C#N)cc1 (stereo not drawn) | – | inactive: -18%
CC1=C(C(=O)OCC(C)C)C(c2ccc(Br)s2)NC(=O)N1 (stereo not drawn) | inconclusive: 10 µM [inhibitor, partial curve] | –
CC(C)N(Cc1nc(-c2ccccc2)no1)C(=O)c1ccc2c(c1)OCO2 | inconclusive: 23.1 µM [inhibitor, single point] | –
CN(C)CCC(=O)C(Cc1ccccc1)c1ccccc1 (stereo not drawn) | inconclusive: 35.5 µM [inhibitor, single point] | –
Cc1ccc(S(=O)(=O)N(Cc2ccccc2)c2ccccc2C(=O)Nc2ccccc2C(=O)NCc2ccco2)cc1 | active: 16.4 µM | –
CC(C)N(C(=O)CSc1nc(COc2ccccc2)nc2ccccc12)C(C)C | inconclusive: 8.91 µM [inhibitor, partial curve] | –
Nn1c(SCC(=O)Nc2ccc(F)cc2F)nnc1-c1cccnc1 | – | inactive: 21.9%
NC(=O)c1ccc(NC(=O)CSc2nnc(C3CC3)n2C2CC2)cc1 | – | inactive: 13.9% [at 46.1 µM]
Cc1nn(-c2ccccc2)c2c1/C(=N/O)CC(C)(C)C2 | inconclusive: 14.1 µM [activator, single point] | –
CS(=O)Cc1cc(Sc2ccccc2)nc(-c2cccnc2)n1 (stereo not drawn) | inconclusive: 5.62 µM [inhibitor, single point] | –
Cc1ccc(/C=N/N2CCOCC2)s1 | inconclusive: 14.1 µM [activator, single point] | –
C=CCc1c(C)nc(SC)nc1Nc1ccccc1 | – | inactive: -6.44%
COc1ccc(CCN(C)C(=O)C23CC4CC(CC(Cl)(C4)C2)C3)cc1OC | inconclusive: 11.2 µM [activator, partial curve] | –
CCCCCCN1C=CC(=C/C=C(\C#N)C(=O)OCC)C=C1 | – | inactive: 0.313%
NS(=O)(=O)c1ccc(NC(=S)N2CCN(c3ccccc3)CC2)cc1 | inconclusive: 3.16 µM [inhibitor, single point] | –
COc1cc(-c2nnc(SCC(=O)N3c4ccccc4Sc4ccccc43)o2)cc(OC)c1OC | inconclusive: 12.6 µM [inhibitor, single point] | –
O=C(c1cc2cc(Br)ccc2o1)N1CCCCC1 | inconclusive: 0.891 µM [activator, partial curve, poor fit] | –
Nc1nnc(SCC(=O)c2ccc3c(c2)NC(=O)CO3)s1 | – | inactive: 9.02%
O=C(c1ccccc1)c1ccccc1N1C(=O)C=CC1=O | inconclusive: 15.8 µM [activator, partial curve, poor fit] | –
CCCCCn1c(=O)c(C(=O)Nc2ccccc2C)c(O)c2ccccc21 | – | inactive: 24% [at 46.1 µM]
CC(C)c1ccc(CNCc2ccccc2)cc1 | active: 18.3 µM | –
CC1(C)Cc2ccccc2-c2nnc(SCC(=O)N3CCN(c4ccccc4)CC3)n21 | inconclusive: 14.6 µM [inhibitor, partial curve, poor fit] | –
